Assay results from patent US20150093752.
For at least one entry, the source does not settle the construct or the ends of the probe.

Test system: M.HpaII DNA cytosine-5 methyltransferase
Assay: activity assay
Conditions: hmC at target C of CCGG; hmC to C; heat-inactivated control used; purified recombinant protein; label: 33P internal; variant of duplex VII:VIII C (nonspecific-C)

Q: Which “activity on this sequence” value does the source give for “TGACCCACGCTCGCC / ACATAATTTATCTCCGGGCGAGCGTGGGTCA [duplex VII:VIII hmC]” here?
A: Its value is “active”.
